# Measurements published in the supplement of paper PMC10849652.
# Amino acid sequences for entries named in this document (tags omitted). A change or cut given only in a name is not applied to a line headed by its entry.
# UniProt I6L899: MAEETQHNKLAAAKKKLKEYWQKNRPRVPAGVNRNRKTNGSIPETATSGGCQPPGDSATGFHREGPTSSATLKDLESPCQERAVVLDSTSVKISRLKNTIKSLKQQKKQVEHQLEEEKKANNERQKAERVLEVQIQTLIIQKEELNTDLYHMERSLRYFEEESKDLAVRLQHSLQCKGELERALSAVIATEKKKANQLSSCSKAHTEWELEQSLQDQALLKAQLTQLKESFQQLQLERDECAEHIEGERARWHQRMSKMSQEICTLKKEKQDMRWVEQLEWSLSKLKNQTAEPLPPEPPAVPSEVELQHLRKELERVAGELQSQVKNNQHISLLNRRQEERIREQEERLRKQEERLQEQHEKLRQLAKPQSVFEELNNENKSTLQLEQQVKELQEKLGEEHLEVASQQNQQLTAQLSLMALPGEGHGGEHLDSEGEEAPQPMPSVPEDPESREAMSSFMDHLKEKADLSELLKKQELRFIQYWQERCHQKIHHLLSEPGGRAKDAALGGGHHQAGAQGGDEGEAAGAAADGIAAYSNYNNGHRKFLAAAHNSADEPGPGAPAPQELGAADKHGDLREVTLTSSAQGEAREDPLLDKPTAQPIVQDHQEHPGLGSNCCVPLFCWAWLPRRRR
# UniProt Q9NZD2: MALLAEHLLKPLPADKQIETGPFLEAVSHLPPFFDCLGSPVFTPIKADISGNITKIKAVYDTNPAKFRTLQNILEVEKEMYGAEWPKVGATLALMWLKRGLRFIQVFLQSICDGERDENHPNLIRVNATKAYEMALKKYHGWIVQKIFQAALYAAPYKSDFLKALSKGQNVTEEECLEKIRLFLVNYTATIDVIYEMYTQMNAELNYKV
# UniProt Q92917: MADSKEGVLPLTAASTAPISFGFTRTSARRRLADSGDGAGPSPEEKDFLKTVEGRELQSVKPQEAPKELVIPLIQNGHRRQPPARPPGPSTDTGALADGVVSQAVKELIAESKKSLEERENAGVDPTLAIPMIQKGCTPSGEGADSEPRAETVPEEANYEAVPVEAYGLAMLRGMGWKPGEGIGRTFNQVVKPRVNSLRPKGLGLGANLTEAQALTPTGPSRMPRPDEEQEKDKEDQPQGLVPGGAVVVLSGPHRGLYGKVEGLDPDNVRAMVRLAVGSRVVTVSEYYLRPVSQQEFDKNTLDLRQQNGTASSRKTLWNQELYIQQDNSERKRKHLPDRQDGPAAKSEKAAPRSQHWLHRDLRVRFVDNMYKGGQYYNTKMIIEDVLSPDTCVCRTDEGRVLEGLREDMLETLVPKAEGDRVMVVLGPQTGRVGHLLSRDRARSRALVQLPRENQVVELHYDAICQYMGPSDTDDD
# UniProt Q9H9Y4: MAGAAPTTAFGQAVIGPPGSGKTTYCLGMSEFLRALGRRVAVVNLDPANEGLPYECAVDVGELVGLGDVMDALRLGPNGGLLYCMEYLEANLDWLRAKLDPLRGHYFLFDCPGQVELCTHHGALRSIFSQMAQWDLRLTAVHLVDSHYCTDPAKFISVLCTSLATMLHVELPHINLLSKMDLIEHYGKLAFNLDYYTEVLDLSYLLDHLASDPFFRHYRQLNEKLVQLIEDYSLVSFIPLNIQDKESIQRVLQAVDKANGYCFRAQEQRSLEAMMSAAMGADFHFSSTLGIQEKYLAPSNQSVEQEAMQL
# UniProt O15228: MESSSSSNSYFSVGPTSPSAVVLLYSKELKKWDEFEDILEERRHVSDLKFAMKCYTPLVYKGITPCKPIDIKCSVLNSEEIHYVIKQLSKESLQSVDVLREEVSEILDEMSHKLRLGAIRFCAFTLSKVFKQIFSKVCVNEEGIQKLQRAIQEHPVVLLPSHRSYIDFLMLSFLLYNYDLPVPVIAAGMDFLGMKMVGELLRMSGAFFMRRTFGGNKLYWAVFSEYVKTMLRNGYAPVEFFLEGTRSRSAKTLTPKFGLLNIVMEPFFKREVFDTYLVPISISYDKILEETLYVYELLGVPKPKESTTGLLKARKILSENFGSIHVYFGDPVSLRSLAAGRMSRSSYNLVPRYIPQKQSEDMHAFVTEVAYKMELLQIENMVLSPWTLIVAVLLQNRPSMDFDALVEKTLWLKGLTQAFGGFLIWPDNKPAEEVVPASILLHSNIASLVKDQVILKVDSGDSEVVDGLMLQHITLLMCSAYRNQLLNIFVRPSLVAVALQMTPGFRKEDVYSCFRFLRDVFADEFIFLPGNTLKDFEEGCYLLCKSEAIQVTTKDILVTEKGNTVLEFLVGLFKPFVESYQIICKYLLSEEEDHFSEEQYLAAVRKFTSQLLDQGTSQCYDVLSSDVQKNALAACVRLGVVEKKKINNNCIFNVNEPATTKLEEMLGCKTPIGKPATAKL
# UniProt Q4ZG55: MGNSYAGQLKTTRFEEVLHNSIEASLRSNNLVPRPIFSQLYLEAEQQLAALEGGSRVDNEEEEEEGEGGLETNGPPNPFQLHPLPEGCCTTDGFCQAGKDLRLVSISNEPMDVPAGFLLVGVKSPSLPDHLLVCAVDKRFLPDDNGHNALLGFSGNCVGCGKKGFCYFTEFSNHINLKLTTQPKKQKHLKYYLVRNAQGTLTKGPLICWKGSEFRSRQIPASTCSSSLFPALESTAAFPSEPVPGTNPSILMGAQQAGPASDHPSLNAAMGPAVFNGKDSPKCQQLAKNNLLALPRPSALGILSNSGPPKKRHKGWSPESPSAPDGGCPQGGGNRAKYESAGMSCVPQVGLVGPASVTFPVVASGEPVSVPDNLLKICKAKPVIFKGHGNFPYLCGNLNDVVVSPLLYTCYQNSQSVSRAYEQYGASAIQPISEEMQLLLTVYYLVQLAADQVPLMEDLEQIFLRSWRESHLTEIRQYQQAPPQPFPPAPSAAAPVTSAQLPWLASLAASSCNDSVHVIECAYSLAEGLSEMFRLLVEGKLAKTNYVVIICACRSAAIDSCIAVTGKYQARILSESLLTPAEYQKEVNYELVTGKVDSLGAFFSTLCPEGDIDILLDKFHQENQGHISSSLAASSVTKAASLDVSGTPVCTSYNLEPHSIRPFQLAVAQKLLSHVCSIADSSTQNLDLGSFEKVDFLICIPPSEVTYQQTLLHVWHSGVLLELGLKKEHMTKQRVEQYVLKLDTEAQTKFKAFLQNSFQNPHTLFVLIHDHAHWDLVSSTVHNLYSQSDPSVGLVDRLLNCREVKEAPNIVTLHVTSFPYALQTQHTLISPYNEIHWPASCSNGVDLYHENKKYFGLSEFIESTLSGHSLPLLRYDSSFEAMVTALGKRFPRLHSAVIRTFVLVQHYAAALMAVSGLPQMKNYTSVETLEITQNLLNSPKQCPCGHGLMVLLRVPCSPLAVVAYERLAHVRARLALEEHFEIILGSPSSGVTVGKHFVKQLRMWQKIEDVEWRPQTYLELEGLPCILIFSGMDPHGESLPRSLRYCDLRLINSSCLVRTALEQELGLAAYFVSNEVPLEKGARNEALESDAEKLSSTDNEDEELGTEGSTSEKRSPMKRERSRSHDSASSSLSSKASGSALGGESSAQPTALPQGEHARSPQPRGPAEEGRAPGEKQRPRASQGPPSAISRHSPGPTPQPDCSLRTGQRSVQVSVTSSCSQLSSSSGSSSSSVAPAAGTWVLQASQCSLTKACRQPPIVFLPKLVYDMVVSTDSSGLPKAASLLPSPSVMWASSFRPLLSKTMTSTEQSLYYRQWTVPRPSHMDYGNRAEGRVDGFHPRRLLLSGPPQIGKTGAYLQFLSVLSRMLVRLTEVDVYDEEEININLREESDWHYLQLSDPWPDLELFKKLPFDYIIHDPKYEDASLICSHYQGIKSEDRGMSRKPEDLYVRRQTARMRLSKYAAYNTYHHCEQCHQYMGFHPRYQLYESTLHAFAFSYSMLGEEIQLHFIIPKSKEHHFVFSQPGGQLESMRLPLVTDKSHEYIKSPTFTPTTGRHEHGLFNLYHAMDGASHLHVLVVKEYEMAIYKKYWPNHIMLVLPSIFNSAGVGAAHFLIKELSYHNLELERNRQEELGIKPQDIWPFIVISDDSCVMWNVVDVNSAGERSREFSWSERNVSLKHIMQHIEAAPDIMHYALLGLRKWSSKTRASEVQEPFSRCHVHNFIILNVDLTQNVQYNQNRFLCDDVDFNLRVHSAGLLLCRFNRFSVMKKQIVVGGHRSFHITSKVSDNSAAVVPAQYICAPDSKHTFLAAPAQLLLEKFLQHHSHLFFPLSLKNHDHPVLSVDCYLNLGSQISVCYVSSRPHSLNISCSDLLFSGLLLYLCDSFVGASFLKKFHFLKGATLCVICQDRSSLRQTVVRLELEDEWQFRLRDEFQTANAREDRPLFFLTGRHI
# UniProt Q9BXV9: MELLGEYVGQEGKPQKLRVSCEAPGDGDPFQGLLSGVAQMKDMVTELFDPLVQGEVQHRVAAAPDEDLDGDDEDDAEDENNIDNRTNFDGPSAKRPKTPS
# UniProt Q3T8J9: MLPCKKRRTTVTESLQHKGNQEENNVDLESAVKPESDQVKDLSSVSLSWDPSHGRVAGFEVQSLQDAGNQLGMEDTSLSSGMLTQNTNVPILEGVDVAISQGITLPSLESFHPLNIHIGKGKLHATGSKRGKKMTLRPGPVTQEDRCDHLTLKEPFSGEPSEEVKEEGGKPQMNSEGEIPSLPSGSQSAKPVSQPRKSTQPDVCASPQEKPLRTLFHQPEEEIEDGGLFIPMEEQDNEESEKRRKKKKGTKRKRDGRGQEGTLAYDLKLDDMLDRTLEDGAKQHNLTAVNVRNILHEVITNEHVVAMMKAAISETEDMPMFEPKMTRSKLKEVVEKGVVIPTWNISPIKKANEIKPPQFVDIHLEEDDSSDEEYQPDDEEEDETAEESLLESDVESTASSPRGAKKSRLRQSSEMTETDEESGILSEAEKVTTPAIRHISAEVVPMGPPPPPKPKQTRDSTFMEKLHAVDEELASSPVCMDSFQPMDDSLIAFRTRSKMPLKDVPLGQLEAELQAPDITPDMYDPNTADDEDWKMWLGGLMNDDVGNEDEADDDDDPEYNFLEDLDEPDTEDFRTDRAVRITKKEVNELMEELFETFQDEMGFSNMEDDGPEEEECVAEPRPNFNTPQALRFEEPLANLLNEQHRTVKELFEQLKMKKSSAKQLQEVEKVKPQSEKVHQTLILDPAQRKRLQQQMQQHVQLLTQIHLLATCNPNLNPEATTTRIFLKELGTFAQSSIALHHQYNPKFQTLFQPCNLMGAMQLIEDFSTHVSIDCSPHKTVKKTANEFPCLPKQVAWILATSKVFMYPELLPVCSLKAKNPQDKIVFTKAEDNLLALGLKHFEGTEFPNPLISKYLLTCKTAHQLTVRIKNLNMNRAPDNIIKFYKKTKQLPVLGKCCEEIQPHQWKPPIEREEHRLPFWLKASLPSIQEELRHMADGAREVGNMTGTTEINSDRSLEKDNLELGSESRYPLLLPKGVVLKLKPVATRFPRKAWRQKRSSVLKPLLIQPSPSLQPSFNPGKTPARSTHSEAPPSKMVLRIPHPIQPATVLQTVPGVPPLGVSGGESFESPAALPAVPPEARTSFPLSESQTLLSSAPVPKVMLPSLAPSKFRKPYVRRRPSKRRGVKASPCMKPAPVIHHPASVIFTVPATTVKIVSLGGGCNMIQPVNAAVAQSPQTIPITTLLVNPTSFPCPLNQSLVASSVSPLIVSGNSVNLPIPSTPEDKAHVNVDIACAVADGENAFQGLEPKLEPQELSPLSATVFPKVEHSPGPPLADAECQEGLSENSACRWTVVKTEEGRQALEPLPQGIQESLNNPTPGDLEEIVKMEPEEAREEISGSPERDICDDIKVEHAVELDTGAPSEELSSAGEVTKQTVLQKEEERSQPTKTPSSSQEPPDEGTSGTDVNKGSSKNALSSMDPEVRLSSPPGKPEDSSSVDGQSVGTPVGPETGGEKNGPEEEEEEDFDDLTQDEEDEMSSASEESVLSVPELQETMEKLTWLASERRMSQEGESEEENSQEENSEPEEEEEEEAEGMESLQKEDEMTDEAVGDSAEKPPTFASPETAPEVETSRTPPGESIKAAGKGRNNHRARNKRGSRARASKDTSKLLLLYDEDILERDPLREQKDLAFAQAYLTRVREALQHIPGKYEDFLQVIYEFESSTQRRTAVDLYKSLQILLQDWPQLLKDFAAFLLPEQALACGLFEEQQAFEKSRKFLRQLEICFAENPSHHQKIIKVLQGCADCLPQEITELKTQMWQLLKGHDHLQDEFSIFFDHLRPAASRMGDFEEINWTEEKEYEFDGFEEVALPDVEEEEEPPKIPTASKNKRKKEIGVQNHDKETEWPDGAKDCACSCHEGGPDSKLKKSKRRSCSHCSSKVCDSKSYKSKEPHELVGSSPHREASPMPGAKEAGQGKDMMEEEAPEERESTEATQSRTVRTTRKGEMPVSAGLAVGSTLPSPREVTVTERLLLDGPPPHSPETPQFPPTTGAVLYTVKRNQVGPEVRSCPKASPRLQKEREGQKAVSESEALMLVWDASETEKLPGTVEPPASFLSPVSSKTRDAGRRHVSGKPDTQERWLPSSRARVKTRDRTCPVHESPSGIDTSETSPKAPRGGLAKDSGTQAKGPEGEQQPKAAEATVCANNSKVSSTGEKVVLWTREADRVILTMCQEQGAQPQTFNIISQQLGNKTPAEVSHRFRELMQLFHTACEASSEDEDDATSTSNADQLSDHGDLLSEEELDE
# This is one part of the list.
# Experiments:
# Test in all cases: log2 fold change, soluble protein after heating vs DMSO (PISA); higher = thermal stabilisation; K562 cells, 10 uM, 30 min; active = over 0.2 and 3.5 SD of the protein, either way, in both replicates (recomputed)
# erlotinib = compound: C#Cc1cccc(Nc2ncnc3cc(OCCOC)c(OCCOC)cc23)c1 [erlotinib]
# In short: (§1)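 Soluble protein was quantified by TMTpro 16plex LC-MS/MS after channel sums were equalised. It was obtained as the supernatant after 21,000xg for 90 min from pooled aliquots of K562 cells (2×10^6 cells/mL, 10 μM compound, 30 min) heated for 3 min across 48°C-58°C and extracted in PBS with 0.5% NP-40 at 4°C. Thermal stability values are relative to control samples and come from duplicates. They are given as log2 fold changes.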
# [1] = compound: C/C(=N\NC(=O)C1=CC(=CC=C1)S(=O)(=O)N2CCOCC2)/C3=C(C=CC(=C3)Cl)O
# In short: as §1
# [2] = compound: C1=CC(=C(C=C1Cl)C2=NC3=NC=CN=C3C(=N2)NC4=CC=NC=C4)F
# In short: as §1
# [3] = compound: C1=CC(=CC=C1C2=NC3=C(N2)C=C(C=C3)C(=O)N)OC4=CC=C(C=C4)Cl
# In short: as §1
# [4] = compound: C1=CC2=C(C=CC(=C2)/C=C\3/C(=O)NC(=NCC4=CC=CS4)S3)N=C1
# In short: as §1
# [5] = compound: C1=CC2=NC=CN=C2C=C1/C=C/3\C(=O)NC(=O)S3
# In short: as §1
# [6] = compound: C1=CC=C(C=C1)C2=NC(=C(N2)C3=CC=NC=C3)C4=CC(=C(C=C4)Cl)O
# In short: as §1
# [7] = compound: C1=CC=C2C(=C1)C3=NNC4=CC=CC(=C43)C2=O
# In short: as §1
# [8] = compound: C1CCN(C1)C(=O)NC2=CC=CC(=C2)NC3=NC=C(C(=N3)NCCC4=CN=CN4)Br
# In short: as §1
# [9] = compound: C1CN(CCC1(CC2=CC=C(C=C2)Cl)N)C3=NC=NC4=C3C=CN4
# In short: as §1
Target,log2 fold change (erlotinib),log2 fold change [1],log2 fold change [2],log2 fold change [3],log2 fold change [4],log2 fold change [5],log2 fold change [6],log2 fold change [7],log2 fold change [8],log2 fold change [9]
GOT2 (UniProt P00505),inactive: -0.019,inactive: -0.012,inactive: 0.02,inactive: 0.011,inactive: -0.017,inactive: -0.017,inactive: 0.004,inactive: 0.002,inactive: -0.005,inactive: 0.024
GPAM (UniProt Q9HCL2),inactive: 0.025,inactive: -0.246,inactive: -0.065,inactive: -0.028,inactive: 0.387,–,inactive: 0.041,inactive: 0.284,inactive: 0.131,inactive: 0.086
GLS (UniProt O94925),inactive: 0.003,inactive: 0.105,inactive: 0.174,inactive: -0.107,inactive: -0.043,inactive: 0.14,inactive: 0.034,inactive: -0.023,inactive: -0.091,inactive: -0.03
GOLGA8R (UniProt I6L899),inactive: 0.377,inactive: -0.394,–,inactive: -0.019,inactive: 0.078,inactive: -0.008,inactive: 0.058,inactive: -0.049,inactive: -0.097,inactive: 0.302
GLRX3 (UniProt O76003),inactive: -0.031,inactive: 0.024,inactive: 0.052,inactive: -0.037,inactive: 0.011,inactive: 0.006,inactive: 0.031,inactive: -0.001,inactive: 0.003,inactive: -0.015
GPAA1 (UniProt O43292),inactive: -0.075,inactive: 0.026,inactive: 0.026,inactive: 0.01,inactive: 0.011,inactive: 0.013,inactive: -0.001,inactive: -0.015,inactive: -0.009,inactive: 0.049
GLB1 (UniProt P16278),inactive: -0.082,inactive: 0.038,inactive: 0,inactive: -0.006,inactive: 0.018,inactive: -0.028,inactive: 0.013,inactive: -0.011,inactive: 0.017,inactive: -0.009
GLTP (UniProt Q9NZD2),inactive: -0.007,inactive: -0.123,–,inactive: -0.019,inactive: 0.127,inactive: -0.009,inactive: -0.136,inactive: 0.015,inactive: -0.032,inactive: -0.101
GPN3 isoform 2 (UniProt Q9UHW5),inactive: 0.022,inactive: 0.009,inactive: 0.022,inactive: -0.039,inactive: -0.135,inactive: 0.011,inactive: -0.011,inactive: 0.002,inactive: 0.027,inactive: 0.119
GNG5 (UniProt P63218),inactive: -0.07,inactive: 0.01,active: 0.436,inactive: 0.089,inactive: 0.031,inactive: -0.001,inactive: 0.072,inactive: 0.038,inactive: -0.037,inactive: -0.044
GNPDA1 (UniProt P46926),inactive: -0.007,inactive: 0.02,inactive: 0.02,inactive: 0,inactive: -0.009,inactive: 0.024,inactive: -0.055,inactive: -0.019,inactive: 0.017,inactive: 0.072
GK (UniProt P32189),inactive: -0.015,inactive: -0.031,inactive: 0.037,inactive: -0.001,inactive: -0.002,inactive: 0.032,inactive: 0.012,inactive: 0,inactive: 0.007,inactive: 0.034
GPKOW (UniProt Q92917),inactive: 0.099,inactive: 0.116,inactive: 0.016,inactive: 0.016,inactive: 0.057,inactive: 0.013,inactive: -0.016,inactive: 0.029,inactive: -0.011,inactive: 0.001
GPN2 (UniProt Q9H9Y4),inactive: -0.039,inactive: -0.085,–,inactive: 0.109,inactive: 0.017,inactive: 0.064,inactive: -0.058,inactive: 0.004,inactive: 0.004,inactive: 0.05
GPRIN1 (UniProt Q7Z2K8),inactive: 0.048,inactive: -0.054,inactive: 0.014,inactive: 0.01,inactive: 0.022,inactive: 0.032,inactive: -0.006,inactive: -0.078,inactive: -0.041,inactive: 0.044
GNA12 (UniProt Q03113),inactive: 0.173,inactive: -0.157,inactive: 0.029,inactive: 0.046,inactive: 0.282,inactive: 0.052,–,inactive: 0,inactive: 0.183,inactive: 0.072

Target,log2 fold change (erlotinib),log2 fold change [1],log2 fold change [2],log2 fold change [3],log2 fold change [4],log2 fold change [5],log2 fold change [6],log2 fold change [7],log2 fold change [8],log2 fold change [9]
GLB1L2 (UniProt Q8IW92),inactive: -0.039,inactive: -0.071,inactive: -0.026,inactive: -0.015,inactive: 0.04,inactive: -0.028,inactive: 0.061,inactive: 0.008,inactive: 0.003,inactive: 0.078
GNS (UniProt P15586),inactive: -0.033,inactive: -0.003,inactive: 0.005,inactive: 0.004,inactive: 0.028,inactive: 0.026,inactive: 0.03,inactive: -0.04,inactive: 0.023,inactive: 0.061
GIT2 (UniProt Q14161),inactive: 0.111,inactive: 0.32,inactive: -0.166,inactive: -0.057,inactive: 0.027,inactive: 0.426,–,inactive: 0.044,–,–
GOLGA4 isoform 5 (UniProt Q13439),inactive: 0.275,inactive: -0.04,inactive: -0.117,inactive: -0.031,inactive: 0.161,inactive: 0.003,inactive: -0.075,inactive: 0.002,inactive: 0.045,inactive: -0.114
GNMT (UniProt Q14749),inactive: 0.009,inactive: 0.151,–,inactive: -0.095,inactive: 0.114,inactive: -0.176,inactive: -0.07,inactive: -0.179,inactive: -0.15,inactive: 0.05
GOLGA7 (UniProt Q7Z5G4),inactive: 0.059,inactive: 0.023,inactive: 0.121,inactive: 0.033,inactive: -0.008,inactive: 0.081,–,inactive: -0.035,inactive: -0.06,inactive: 0.032
GNPAT (UniProt O15228),inactive: 0.067,inactive: 0.112,inactive: 0.075,inactive: -0.001,inactive: 0.073,inactive: 0.03,inactive: 0.057,inactive: 0.019,inactive: -0.003,inactive: 0.058
GREB1 (UniProt Q4ZG55),inactive: 0.218,active: -0.751,inactive: 0,inactive: -0.132,inactive: 0.092,–,–,inactive: -0.044,inactive: -0.06,inactive: 0.291
GLRX2 isoform 2 (UniProt Q9NS18),inactive: -0.015,inactive: -0.005,inactive: 0.148,inactive: -0.002,inactive: -0.033,inactive: 0.123,inactive: -0.108,inactive: -0.095,inactive: -0.037,inactive: -0.001
GON7 (UniProt Q9BXV9),inactive: 0.031,inactive: -0.092,inactive: 0.147,inactive: 0.033,inactive: -0.086,inactive: 0.039,inactive: -0.028,inactive: -0.127,inactive: -0.014,inactive: -0.069
GPHN isoform 2 (UniProt Q9NQX3),inactive: 0.045,inactive: -0.01,inactive: 0.023,inactive: 0.023,inactive: 0.018,inactive: 0.014,inactive: 0,inactive: -0.04,inactive: -0.011,inactive: 0.054
GP1BB isoform 2 (UniProt P13224),inactive: -0.042,inactive: -0.006,inactive: 0.002,inactive: 0.031,inactive: -0.027,inactive: -0.009,–,inactive: -0.024,inactive: -0.04,inactive: 0.012
GON4L (UniProt Q3T8J9),–,inactive: -0.216,inactive: 0.072,–,inactive: 0.221,inactive: 0.028,–,inactive: -0.035,inactive: -0.066,inactive: -0.042
GPR68 (UniProt Q15743),–,inactive: 0.023,–,–,inactive: -0.048,–,inactive: -0.109,inactive: 0.047,–,–
GP6 isoform 3 (UniProt Q9HCN6),inactive: 0.112,–,–,inactive: 0.024,–,inactive: 0.204,–,–,–,–
GLCE (UniProt O94923),inactive: -0.028,–,–,inactive: 0.002,–,inactive: -0.146,–,–,–,–

# Copied from the entries so far (2 entries):
Target,log2 fold change (erlotinib),log2 fold change [1],log2 fold change [2],log2 fold change [3],log2 fold change [4],log2 fold change [5],log2 fold change [6],log2 fold change [7],log2 fold change [8],log2 fold change [9]
GOLGA7 (UniProt Q7Z5G4),inactive: 0.059,inactive: 0.023,inactive: 0.121,inactive: 0.033,inactive: -0.008,inactive: 0.081,–,inactive: -0.035,inactive: -0.06,inactive: 0.032
GNPAT (UniProt O15228),inactive: 0.067,inactive: 0.112,inactive: 0.075,inactive: -0.001,inactive: 0.073,inactive: 0.03,inactive: 0.057,inactive: 0.019,inactive: -0.003,inactive: 0.058
